This note sets out measurements from US20030125296.

Amino acid sequences for entries named in this document (tags omitted). Chains listed by the source or under a name are the forms on record and can include a tag or linker.
UniProt Q5ZQU0, other isoform, or with tags, fused parts or gaps: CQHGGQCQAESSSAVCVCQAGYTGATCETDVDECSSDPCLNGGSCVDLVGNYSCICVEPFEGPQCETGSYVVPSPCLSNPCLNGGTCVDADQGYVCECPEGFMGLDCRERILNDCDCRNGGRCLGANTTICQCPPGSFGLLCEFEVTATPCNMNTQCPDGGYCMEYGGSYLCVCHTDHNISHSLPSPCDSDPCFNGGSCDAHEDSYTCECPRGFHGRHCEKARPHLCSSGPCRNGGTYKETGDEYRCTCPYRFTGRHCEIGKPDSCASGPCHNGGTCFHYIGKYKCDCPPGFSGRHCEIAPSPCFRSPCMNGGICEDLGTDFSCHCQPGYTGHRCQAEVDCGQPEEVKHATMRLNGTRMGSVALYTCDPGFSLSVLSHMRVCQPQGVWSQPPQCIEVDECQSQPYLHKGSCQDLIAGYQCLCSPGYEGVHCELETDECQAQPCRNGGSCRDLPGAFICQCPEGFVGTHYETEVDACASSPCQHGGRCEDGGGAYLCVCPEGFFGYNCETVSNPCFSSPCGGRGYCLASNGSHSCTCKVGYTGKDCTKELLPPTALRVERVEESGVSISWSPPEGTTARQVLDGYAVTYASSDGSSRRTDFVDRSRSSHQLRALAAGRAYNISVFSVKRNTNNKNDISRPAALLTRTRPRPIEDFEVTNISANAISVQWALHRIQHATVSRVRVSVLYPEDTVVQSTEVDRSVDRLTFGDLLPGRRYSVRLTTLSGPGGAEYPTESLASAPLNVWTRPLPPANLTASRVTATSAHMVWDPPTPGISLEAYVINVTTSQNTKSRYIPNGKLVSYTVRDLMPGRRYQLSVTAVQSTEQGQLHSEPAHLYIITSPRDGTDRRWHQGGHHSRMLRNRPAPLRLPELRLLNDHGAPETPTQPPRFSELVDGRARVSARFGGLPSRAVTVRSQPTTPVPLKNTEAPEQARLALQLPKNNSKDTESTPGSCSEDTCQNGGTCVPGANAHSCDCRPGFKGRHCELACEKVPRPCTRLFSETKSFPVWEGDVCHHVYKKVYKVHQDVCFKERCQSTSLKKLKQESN

Series [1] addresses IRDBP-1 in hepatic nuclear extract (Rattus norvegicus) (UniProt Q5ZQU0). As to the kind of experiment: EMSA. The note with it: shifted band reactive with anti-IRDBP-1 cAb, protein in an extract.
Series [2] has as its system HBP1. In words: activity in cells. The settings on record: CHO, IGFBP-1 IRE luciferase activated by HBP1; reduced by IRDBP-1 cotransfection; protein in cells; only the site is given.
The test system of series [3] is HBP1. In words: one hybrid. The settings on record: isolated from yeast one-hybrid screen with 3 copies of IRE; protein in cells; label: 32P.
The subject of the next series is Sp1. As to the kind of experiment: EMSA. The note with it: nuclear extract, band recognised by anti-Sp1; protein in an extract.

The exact form of at least one protein or probe is not confirmed. For part of these data: At least one result comes from cells or an extract, where the contact may be indirect.

For “GTTTGTTTTGCTAGT (double strand) [IGFBP-1 IRE]”, in series [1], the binding result is listed as “binds”. For the same sequence, the “activity on this sequence” value in the series with HBP1 [2] is given as “active”.
“AATTCAAGGGTATCCAGGAAAGTCTCC (double strand) [IGFBP-3 IRE -1150/-1117]”: the binding result in the series on HBP1 [3] was “binds”.
Take “AATTCAAGGGTATCCAGGAAAGTCTCCTTCAAG (double strand) [IGFBP-3 IRE oligo (Example 7)]”: the binding result in series [1] is “binds”.
Regarding “GCCTCATTATTCCTGCCCACCAAT (double strand) [IGF-1 IRE]”, the binding result (in the series on Sp1; in series [1]) was “binds” each time.
